Measurements from patent US10945434B2, “Azole derivative, intermediate compound, method for producing azole derivative, agricultural or horticultural chemical agent, and protective agent for industrial material” (priority 2017, dated 2021).
Some of these results come from one statement about several compounds together.

Test system: puccinia recondite-causing germs
Assay: Puccinia Recondite control effect test (spray on wheat)
Assay type: in vivo
Conditions: 100 g/ha; spray on second leaf stage wheat; 14 days after the inoculation

Structure (SMILES)	control value [%]
COC(=O)C(O)(Cn1cncn1)c1ccc(Oc2ccc(Cl)cc2)cc1Cl (centres unmarked) [Compound I-1, methyl 2-hydroxy-2-(2-chloro-4-(4-chlorophenoxy)phenyl)-3-(1H-1,2,4-triazol-1-yl)propanoate]	≥ 70
COC(=O)C(O)(Cn1cncn1)c1ccc(Oc2ccc(Cl)cc2)cc1C (centres unmarked) [Compound I-2, methyl 2-(4-(4-chlorophenoxy)-2-methylphenyl)-2-hydroxy-3-(1H-1,2,4-triazol-1-yl)propanoate]	≥ 70
COC(=O)C(O)(Cn1cncn1)c1ccc(Oc2ccc(Cl)cc2)cc1 (centres unmarked) [Compound I-5, methyl 2-(4-(4-chlorophenoxy)phenyl)-2-hydroxy-3-(1H-1,2,4-triazol-1-yl)propanoate]	≥ 70
COC(=O)C(O)(Cn1cncn1)c1ccc(Oc2ccccc2Cl)cc1Cl (centres unmarked) [Compound I-19, methyl 2-(2-chloro-4-(2-chlorophenoxy)phenyl)-2-hydroxy-3-(1H-1,2,4-triazol-1-yl)propanoate]	≥ 70
COC(=O)C(O)(Cn1cncn1)c1ccc(Oc2cccc(Cl)c2)cc1Cl (centres unmarked) [Compound I-20, methyl 2-(2-chloro-4-(3-chlorophenoxy)phenyl)-2-hydroxy-3-(1H-1,2,4-triazol-1-yl)propanoate]	≥ 70
COC(=O)C(O)(Cn1cncn1)c1ccc(Oc2ccc(Br)cc2)cc1Cl (centres unmarked) [Compound I-25, methyl 2-(2-chloro-4-(4-bromophenoxy)phenyl)-2-hydroxy-3-(1H-1,2,4-triazol-1-yl)propanoate]	≥ 70
COC(=O)C(O)(Cn1cncn1)c1ccc(Oc2ccc(F)cc2)cc1Cl (centres unmarked) [Compound I-26, methyl 2-(2-chloro-4-(4-fluorophenoxy)phenyl)-2-hydroxy-3-(1H-1,2,4-triazol-1-yl)propanoate]	≥ 70
COC(=O)C(O)(Cn1cncn1)c1ccc(Oc2ccc(Cl)c(Cl)c2)cc1Cl (centres unmarked) [Compound I-27, methyl 2-(2-chloro-4-(3,4-dichlorophenoxy)phenyl)-2-hydroxy-3-(1H-1,2,4-triazol-1-yl)propanoate]	≥ 70
COC(=O)C(O)(Cn1cncn1)c1ccc(Oc2ccc(F)c(F)c2)cc1Cl (centres unmarked) [Compound I-28, methyl 2-(2-chloro-4-(3,4-difluorophenoxy)phenyl)-2-hydroxy-3-(1H-1,2,4-triazol-1-yl)propanoate]	≥ 70
CC(C)OC(=O)C(O)(Cn1cncn1)c1ccc(Oc2ccc(Cl)cc2)cc1Cl (centres unmarked) [Compound I-47, isopropyl 2-(2-chloro-4-(4-chlorophenoxy)phenyl)-2-hydroxy-3-(1H-1,2,4-triazol-1-yl)propanoate]	≥ 70
COC(=O)C(O)(Cn1cncn1)c1ccc(Oc2ccc(Cl)cc2)cc1C(F)(F)F (centres unmarked) [Compound I-122, methyl 2-(4-(4-chlorophenoxy)-2-(trifluoromethyl)phenyl)-2-hydroxy-3-(1H-1,2,4-triazol-1-yl)propanoate]	≥ 70
COC(=O)C(O)(Cn1cncn1)c1ccc(Oc2ccc(Cl)cc2)cc1Br (centres unmarked) [Compound I-228, methyl 2-(2-bromo-4-(4-chlorophenoxy)phenyl)-2-hydroxy-3-(1H-1,2,4-triazol-1-yl)propanoate]	≥ 70
COC(=O)C(O)(Cn1cncn1)c1ccc(Oc2ccc(Cl)cc2)cc1F (centres unmarked) [Compound I-334, methyl 2-(4-(4-chlorophenoxy)-2-fluorophenyl)-2-hydroxy-3-(1H-1,2,4-triazol-1-yl)propanoate]	≥ 70
COC(=O)C(O)(Cn1cncn1)c1cc(Oc2ccc(Cl)cc2)ccc1Cl (centres unmarked) [IIa-1, methyl 2-(2-chloro-5-(4-chlorophenoxy)phenyl)-2-hydroxy-3-(1H-1,2,4-triazol-1-yl)propanoate]	≥ 70
